Our source for the inhibition values is PubChem BioAssay AID493027 (The Scripps Research Institute Molecular Screening Center, 2011).

Chains of the proteins cited; added tags and fusions are not shown. Lines headed by an entry give the natural chain unless they say otherwise; changes in a name come on top.
UniProt O60240: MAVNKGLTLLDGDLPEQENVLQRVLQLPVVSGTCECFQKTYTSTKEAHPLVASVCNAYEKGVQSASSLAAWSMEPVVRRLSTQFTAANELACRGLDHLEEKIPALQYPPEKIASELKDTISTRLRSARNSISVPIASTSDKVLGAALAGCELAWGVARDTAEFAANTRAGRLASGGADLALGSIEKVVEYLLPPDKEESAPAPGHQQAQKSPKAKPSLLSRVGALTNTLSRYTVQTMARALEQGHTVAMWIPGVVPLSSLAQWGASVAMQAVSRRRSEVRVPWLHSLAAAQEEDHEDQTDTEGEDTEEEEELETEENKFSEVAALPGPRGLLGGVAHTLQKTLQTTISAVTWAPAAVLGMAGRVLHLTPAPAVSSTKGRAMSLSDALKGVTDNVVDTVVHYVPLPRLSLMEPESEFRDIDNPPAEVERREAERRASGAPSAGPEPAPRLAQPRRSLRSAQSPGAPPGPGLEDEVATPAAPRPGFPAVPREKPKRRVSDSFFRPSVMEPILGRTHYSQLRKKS
UniProt Q8WTS1: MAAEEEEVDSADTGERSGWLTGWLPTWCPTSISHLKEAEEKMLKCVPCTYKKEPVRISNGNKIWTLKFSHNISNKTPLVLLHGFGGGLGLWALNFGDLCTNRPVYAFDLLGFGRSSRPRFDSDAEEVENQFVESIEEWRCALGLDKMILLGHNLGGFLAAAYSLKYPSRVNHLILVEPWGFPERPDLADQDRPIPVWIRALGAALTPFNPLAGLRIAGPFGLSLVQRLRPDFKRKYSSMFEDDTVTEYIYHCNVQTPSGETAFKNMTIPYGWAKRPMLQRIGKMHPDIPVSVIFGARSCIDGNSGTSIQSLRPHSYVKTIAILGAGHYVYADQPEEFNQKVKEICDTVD

Molecules are shown by their SMILES. Screen size: about 2,000 compounds; about 45 (2%) were called active.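 How the source made its calls: active means inhibition above the screen-wide mean inhibition plus 3 SD (cut at about 44% in these data); inactive means the rest.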 The list shows a part of the results.

For the assay, the target named is Perilipin-1 (Homo sapiens) + 1-acylglycerol-3-phosphate O-acyltransferase ABHD5 (Homo sapiens) (UniProt O60240+Q8WTS1). Briefly: ABHD5-PLIN1 interaction inhibitors, pilot screen, cell lysate, split luciferase complementation, luminescence, NIH validation set (AID 493027).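 Further: 0% = DMSO wells with the 100% control not disclosed.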 As to conditions: split G. princeps luciferase complementation, 4 h; at 7.9 µM, active compounds read high.
As a reminder, the inhibition is the relative decrease from the control value, in per cent. With `COc1cc(-c2nnc(-c3cccs3)o2)cc(OC)c1OC`, the inhibition was inactive: -1.61%.

In the case of `CC(C)C1Cc2[nH]c(=O)c(C(=O)O)cc2CO1` (stereo not drawn), the inhibition was inactive: -7.52%.

In the case of `CC1(C)Cc2nc3sc4c(=O)n(CC(N)=O)cnc4c3cc2CO1`, the inhibition was inactive: -4.01%. The same measure for `NC[C@H]1O[C@H](O[C@H]2[C@H](O)[C@@H](O[C@H]3O[C@H](CO)[C@@H](O)[C@H](N)[C@H]3O)[C@H](N)C[C@@H]2N)[C@H](N)C[C@@H]1O`: inactive: -16.2%; for `Cc1[nH]c2ccccc2c1C(=O)CN1CCCC1`: inactive: 5.17%. As to `COc1cc2c(cc1OC)CN(Cc1ccc(C)s1)CC2`, the inhibition was inactive: 2.36%. For `Cc1ccc(C(=O)COC(=O)c2cnccn2)cc1[N+](=O)[O-]` the value was inactive: -4.88%; for `NC12CC3CC(C1)CC(O)(C3)C2`, inactive: -11.4%; for `COc1cc(OC)cc(C(=O)N[C@@H](CCSC)c2nc3ccccc3[nH]2)c1`, inactive: 2.97%. Regarding `CC1(C)O[C@@H]2C[C@H]3[C@@H]4C[C@H](F)C5=CC(=O)C=C[C@]5(C)[C@@]4(F)[C@@H](O)C[C@]3(C)[C@]2(C(=O)CO)O1`, the inhibition was inactive: 0.56%. Regarding `O=C(c1ccc(Cl)cc1)C1CCCN(C(=O)/C=C/c2ccccn2)C1` (stereo not drawn), the inhibition was inactive: 9.97%. As to `CCOC(=O)C1=C(N)Oc2c(c(=O)[nH]c3ccccc23)C1c1ccccc1` (stereo not drawn), the inhibition is inactive: -33.2%. The same measure for `COc1ccc(CCNC(=O)CC(c2ccccc2)c2cccc(C)c2O)cc1OC` (stereo not drawn): inactive: 4.47%. As for `COc1ccc(/C=C2\CCc3ccccc3C2=O)c(OC)c1OC`, the inhibition is inactive: -0.86%. On to `CC(=O)OCC(=O)C1=CCC2C3CCC4=CC(=O)C=CC4(C)C3(F)C(OC(C)=O)CC12C` (stereo not drawn), for which the inhibition was inactive: -8.97%.

Turning to `CC#C[C@]1(O)CC[C@H]2[C@@H]3CCC4=CC(=O)CCC4=C3[C@@H](c3ccc(N(C)C)cc3)C[C@@]21C`, the inhibition was inactive: 15.2%. As for `COc1ccc(Cl)cc1C(=O)NCCc1ccc(S(=O)(=O)NC(=O)NC2CCCCC2)cc1`, the inhibition is inactive: 3.61%. The same measure for `FC(F)(F)c1ccc(-c2noc(CN3CCCN(C4CCCCC4)CC3)n2)cc1`: inactive: -8.86%; for `COc1cc(CNCCc2c[nH]c3ccccc23)cc(Cl)c1OCC(N)=O`: inactive: 2.16%. In the case of `COc1cc2[nH]c3c(=O)n(CCN4CCOCC4)cnc3c2cc1OC`, the inhibition is inactive: -2.51%. Turning to `CC(C)N(C(=O)Cc1ccccc1[N+](=O)[O-])C(C)C`, the inhibition was inactive: -4.05%.

Consider `CC(=O)Nc1nnc(S(N)(=O)=O)s1`, for which the inhibition is inactive: 3.22%. For the compound `CC(C)Oc1ccc2c(=O)c(-c3ccccc3)coc2c1`, the inhibition is inactive: 4.58%. Consider `CO[C@H]1C=CO[C@@]2(C)Oc3c(C)c(O)c4c(O)c(c(C=NN5CCN(C)CC5)c(O)c4c3C2=O)NC(=O)C(C)=CC=C[C@H](C)[C@H](O)[C@@H](C)[C@@H](O)[C@@H](C)[C@H](OC(C)=O)[C@@H]1C`, for which the inhibition was inactive: 3.72%. For `COC(=O)c1ccc(CC(=O)c2ccc(O)cc2O)o1` the value was inactive: 19.2%. The same measure for `O=C(O)c1ccc(N2C(=O)/C(=C\c3ccccc3)N=C2c2ccccc2)cc1`: inactive: 13.6%. In the case of `CC(/C=C1\SC(=O)N(CCCC(=O)O)C1=O)=C\c1ccccc1`, the inhibition was inactive: 13.5%. As to `CCc1cc(/C(Cc2ccccn2)=N\O)c(O)cc1O`, the inhibition was inactive: 3.21%. Take `CCc1cc(-c2[nH]ncc2-c2ccc3c(c2)OCO3)c(O)cc1O`: the inhibition is inactive: 16.6%. For the compound `Cc1ccc(C(=O)Nc2ccc(O)cc2C(=O)O)cc1C`, the inhibition was inactive: -7.39%.

With `COc1ccc(C2OC(=O)Cc3cc(OC)c(OC)cc32)cc1` (stereo not drawn), the inhibition was inactive: -1.64%. For `CCc1c(C)c2ccc(OCC(=O)OC(C)C)c(C)c2oc1=O` the value was inactive: 0.77%; for `Cc1ccc2c(c1)c1c3n2CCCN(Cc2ccccc2)C3CCC1` (stereo not drawn), inactive: -8.82%; for `CC(C)[C@H](NC(=O)[C@@H]1CSCN1C(=O)OC(C)(C)C)C(=O)NCC1CCC(C(=O)O)CC1` (stereo partly drawn), inactive: -18.7%. Consider `COc1ccc(C(=O)[C@H]2[C@H]3C(=O)N(c4ccccc4)C(=O)[C@H]3C3C=CC=NN32)cc1` (stereo partly drawn), for which the inhibition was inactive: 4.5%.

On to `Cc1ccc2[nH]c3c(=O)n(CCCN4CCN(C)CC4)cnc3c2c1`, for which the inhibition was inactive: -8.5%. For the compound `CC1(C)c2ccccc2N2CC(=O)N(CC(N)=O)C21C` (stereo not drawn), the inhibition was inactive: 4.18%. Take `COCC(C)NC(=O)c1ccc(CN2CCc3ccccc3C2)cc1` (stereo not drawn): the inhibition is inactive: -5.17%. Consider `CC(C)C(CCN1C(=O)CCC1=O)C1CCOC(C)(C)C1` (stereo not drawn), for which the inhibition was inactive: -3.32%. The same measure for `C[C@@H]1CCC[C@H](C)N1NC(=O)c1ccc(Cl)c(S(N)(=O)=O)c1`: inactive: -11.3%.

As to `O=C(CCCN1C(=O)/C(=C\c2cccc(Br)c2)SC1=S)Nc1cccnc1`, the inhibition is inactive: 35.1%.

As for `COC(=O)c1ccccc1OCCOCCOc1cccc2ccc(C)nc12`, the inhibition is inactive: -2.67%. `CCN(CC)CCNC(=O)c1ccc(N)cc1`: the inhibition is inactive: -8.9%.

Consider `OC[C@@H](O)[C@@H](O[C@H]1O[C@H](CO)[C@@H](O)[C@H](O)[C@H]1O)[C@H](O)[C@@H](O)CO`, for which the inhibition is inactive: -12.7%.

For the compound `C[N+](C)(C)CCCC(=O)c1ccc2c(c1)OCO2`, the inhibition was inactive: -1.39%.

For the compound `CC(=O)C1=C(O)C(=O)N(Cc2cccnc2)C1c1ccc(C(C)C)cc1` (stereo not drawn), the inhibition is inactive: 3.77%.

As to `COc1cc2cc(C)nc(Cc3cccc4ccccc34)c2cc1OC`, the inhibition was inactive: 16.5%. The same measure for `COc1cc(/C=C/C(=O)N2CCCC2)cc(OC)c1OC`: inactive: -1.8%.
